Some of the results follow. Further columns of the screen follow, without active or inactive calls. The list favours compounds with an active or inconclusive main result. The note in brackets gives the kind of curve behind each potency; many fits are weak.
Assay: qHTS Assay to Find Inhibitors of Chronic Active B-Cell Receptor Signaling
Settings: ABC-DLBCL IkBa-CBG/CBR reporter, luminescence ratio (green luciferase fused to IkBa over red control in TMD8 lymphoma cells), 4 h
Method in brief: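 TMD8 human ABC-DLBCL cells with doxycycline-inducible IκBα–green luciferase fusion and unfused red luciferase, in 0.5% FBS medium; compounds up to 46 uM, 4 h at 37C. Green/red luminescence ratio, filter-overlap corrected, fitted to concentration-response curves.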

[1] = measured here: CBR red luminescence, cell number
[2] = measured here: IkBa-CBG green luminescence

O=C(NCCCc1ccccc1)Nc1ccccc1
AC50 [1]: 20.6 µM [falling, single point]

CC(=O)Oc1ccc(C(=O)Nc2ccc3c(c2)OCCO3)cc1
AC50 [1]: 3.98 µM [falling, partial curve]

C[C@H](CO)N1C[C@H](C)[C@@H](CN(C)CC2CCCCC2)Oc2c(NC(=O)C3CC3)cccc2C1=O
AC50 [1]: 32.6 µM [falling, single point]

COc1cccc(-c2nn(C)c3sc(C(=O)NCc4ccc(C)o4)cc23)c1
AC50 [1]: 3.26 µM [falling, partial curve] | AC50 [2]: 2.06 µM [rising, partial curve, poor fit]

Cc1cc2nc(=O)c(/C=C3\C=Nc4ccccc43)c(N)n2o1
AC50 [1]: 22.4 µM [rising, partial curve, poor fit]

CC(C)c1c(O)c2c(n(-c3ccccc3)c1=O)CCCC2
AC50 [1]: 3.26 µM [rising, single point]

CCOC(=O)c1[nH]c(C)c(C(=O)OCC(=O)N(CC)C2CCS(=O)(=O)C2)c1C (configuration not stated)
AC50 [1]: 2.31 µM [falling, partial curve]

O=C(NCc1ccc(Cl)cc1)c1ccc(CNS(=O)(=O)c2ccc(F)cc2)cc1
AC50 [1]: 12.6 µM [rising, partial curve, poor fit]

CC(C)N1CCc2c(sc(NC(=O)c3ccc(S(=O)(=O)N(C)C4CCCCC4)cc3)c2C(N)=O)C1
AC50 [1]: 17.8 µM [falling, partial curve, poor fit]

COCCNC(=O)c1onc(CSc2ccc(F)c(F)c2)c1C(=O)O
AC50 [1]: 28.2 µM [falling, single point]

CCOC(=O)N/N=C/c1ccc(Oc2ccccc2)cc1
AC50 [1]: 15.8 µM [falling, single point]

O=C(NC1CCCCC1)C(c1cccnc1)N(C(=O)CCl)c1ccc(F)cc1 (configuration not stated)
AC50 [1]: 10.3 µM [falling, partial curve, poor fit]

CCOC(=O)c1oc2nc3c(cc2c1N)CCCC3
AC50 [1]: 35.5 µM [falling, single point]

CN(CCO)C(=O)c1ccc(-c2nn(C)c(=O)c3ccccc23)cc1
AC50 [1]: 4.47 µM [rising, full curve, poor fit]

CCOC(=O)N1CCC(Nc2ncnc3c2cnn3-c2ccccc2)CC1
AC50 [2]: 9.2 µM [rising, partial curve, poor fit]

CCCCN=Cc1c(C)[nH]n(-c2ccccc2)c1=S
AC50 [1]: 4.47 µM [rising, full curve, poor fit]

CCOc1ccccc1Nc1nc(-c2sc(NC(=O)c3ccco3)nc2C)cs1
AC50 [1]: 4.47 µM [falling, partial curve]

COc1ccc(OCc2cc(C(=O)NCC3CCOCC3)no2)c(Cl)c1
AC50 [1]: 3.16 µM [rising, single point]

COc1cc(C2=NOC(C(=O)NCc3ccc(F)cc3)C2)cc(OC)c1OC (configuration not stated)
AC50 [1]: 4.61 µM [rising, partial curve, poor fit] | AC50 [2]: 2.91 µM [falling, full curve]

CN1CCC(N(C)C(=S)NC(=O)C23CC4CC(CC(C4)C2)C3)CC1
AC50 [1]: 23.1 µM [rising, partial curve, poor fit]

COc1ccc(-c2nc(CC(=O)O)cs2)cc1
AC50 [1]: 14.6 µM [rising, single point]

COc1cccc(OC)c1C(=O)Nc1ccccc1NC(=O)c1c(OC)cccc1OC
AC50 [1]: 7.08 µM [rising, full curve, poor fit]

CC1CCN(C(=O)c2cccc(NC(=O)c3cccs3)c2)CC1
AC50 [1]: 14.1 µM [falling, partial curve, poor fit]

Cc1noc(NC(=O)c2c(-c3c(Cl)cccc3Cl)noc2C)c1[N+](=O)[O-]
AC50 [1]: 31.6 µM [rising, single point]

CCN(CC)C(=O)c1ccc(-c2cccs2)s1
AC50 [1]: 0.447 µM [rising, full curve, poor fit]

O=C(N/N=C/c1ccccc1)c1c(O)c2ccccc2[nH]c1=O
AC50 [1]: 0.731 µM [falling, full curve]

Cc1ccc(CN(CC(=O)NC2CCCC2)C(=O)CSc2nnc(COc3ccccc3)o2)cc1
AC50 [1]: 0.116 µM [falling, partial curve, poor fit]

Cc1ccc(OCC(=O)Nc2ccc(-c3nnc(-c4ccco4)o3)cc2)cc1
AC50 [1]: 3.16 µM [rising, partial curve, poor fit]

c1nc(CCO[C@H]2CCCCO2)cc2cc3c(cc12)OCO3
AC50 [1]: 18.4 µM [falling, single point]

c1ccc2c(NCC3CCCO3)nc(N3CCCCC3)nc2c1 (configuration not stated)
AC50 [1]: 35.5 µM [rising, partial curve, poor fit]

C[C@H]1CN=C(N(C)C)N1CC1CCC(C(C)(C)C)CC1 (some centres not stated)
AC50 [1]: 20.6 µM [falling, single point]

COc1ccc(Nc2nc3ccccc3n3nnnc23)cc1
AC50 [1]: 29.1 µM [falling, single point]

CCc1nnc(NC(=O)CSc2nnc(-c3ccccc3NC(=O)c3ccccc3)o2)s1
AC50 [1]: 22.4 µM [falling, single point] | AC50 [2]: 15.8 µM [falling, partial curve]

CCN(CC)CCn1c2c(c(SCC(=O)Nc3cccc4ccccc34)nc1=O)CCCC2
AC50 [1]: 29.1 µM [falling, single point]

Oc1ccc2ccccc2c1CNc1ccc(Br)cc1
AC50 [1]: 4.47 µM [falling, partial curve, poor fit]

Cc1[nH]c(=O)[nH]c(=O)c1CSc1nnc([C@@H](NC(=O)OC(C)(C)C)C(C)C)o1
AC50 [1]: 35.5 µM [rising, partial curve, poor fit]

CC(Oc1ccccc1)C(=O)N1CCN(C(=O)C(C)Oc2ccccc2)CC1 (configuration not stated)
AC50 [1]: 2.51 µM [rising, partial curve, poor fit]

CC1CN(S(=O)(=O)c2ccc(C(=O)N3CCc4ccccc43)cc2)CC(C)O1 (configuration not stated)
AC50 [2]: 29.1 µM [rising, partial curve, poor fit]

COc1ccc(-n2c(=S)[nH]c3cc(C(=O)Nc4ccc(F)cc4)ccc3c2=O)c(OC)c1
AC50 [1]: 31.6 µM [falling, single point]

CC(C)(C)NC(=O)NCC1CCCC1NC(=O)NC(C)(C)C (configuration not stated)
AC50 [1]: 0.398 µM [falling, partial curve, poor fit]

CCC(C)NC(=O)Nc1ccc(Br)cc1Cl (configuration not stated)
AC50 [1]: 10 µM [rising, partial curve, poor fit]

CC(C)Oc1cccc(C(=O)N/N=C/c2ccoc2)c1
AC50 [1]: 2.82 µM [falling, full curve, poor fit]

O=C(CCn1nnc2ccccc21)Nc1nnc(COc2ccccc2F)s1
AC50 [1]: 0.517 µM [falling, full curve, poor fit]

O=C(O)c1ccc(CSc2nnc(COc3ccc(Cl)cc3Cl)o2)cc1
AC50 [1]: 23.1 µM [falling, single point]

COc1ccccc1C(=O)COC(=O)CCCN=C1NS(=O)(=O)c2ccccc21
AC50 [1]: 10.3 µM [rising, partial curve]

O=C(COc1ccc(Cl)cc1Cl)Nc1ccccc1NS(=O)(=O)c1cccs1
AC50 [1]: 11.2 µM [rising, partial curve, poor fit]

CCOC(=O)C1=C(C)N=C2c3ccccc3C(=O)C2C1c1ccc(Br)cc1 (configuration not stated)
AC50 [1]: 23.1 µM [falling, single point] | AC50 [2]: 32.6 µM [rising, partial curve, poor fit]

CC(=O)Nc1ccc(SCC(=O)N(CCC#N)c2cc(C)cc(C)c2)cc1
AC50 [1]: 5.17 µM [falling, single point]

Cc1nc(S/C(=C/c2ccc(-c3ccc(C(=O)O)cc3)o2)C(=O)O)n[nH]1
AC50 [1]: 20 µM [falling, single point]

COc1ccc(Cl)cc1NC(=O)C(C)Sc1nnc(C2CC2)n1C1CC1 (configuration not stated)
AC50 [1]: 6.51 µM [falling, partial curve, poor fit]

Cc1ccc2cccc(O)c2[n+]1[O-]
AC50 [1]: 6.31 µM [falling, single point]

CCc1nc2scc(-c3cccs3)c2c(=O)o1
AC50 [1]: 18.4 µM [falling, single point]

NS(=O)(=O)c1ccc(NNC(=O)c2cccs2)cc1
AC50 [1]: 6.31 µM [falling, single point]

COC(=O)c1ccccc1NC(=O)C(=O)NCc1ccncc1
AC50 [1]: 35.5 µM [falling, single point]

COc1ccc(-c2nnc(CSc3nnc(-c4ccncc4)n3C3CCCCC3)o2)cc1OC
AC50 [1]: 0.00461 µM [falling, full curve, poor fit]

CCOC(=O)CSc1nc2c(c(=O)[nH]1)C(C)(CC)Cc1ccccc1-2 (configuration not stated)
AC50 [1]: 14.1 µM [rising, single point] | AC50 [2]: 22.4 µM [falling, single point]

CCC(=O)Nc1ccc(-c2nc3ccccc3c(=O)o2)cc1
AC50 [1]: 35.5 µM [falling, single point]

CCCOC(=O)CC1C(=O)NCCN1Cc1cc(OC)cc(OC)c1 (configuration not stated)
AC50 [1]: 35.5 µM [rising, partial curve, poor fit]

O=C(COc1ccccc1F)NNC(=O)c1cccc(-n2cccc2)c1
AC50 [1]: 12.6 µM [rising, partial curve, poor fit]

c1nc(NC2CCCC2)c2[nH]cnc2n1
AC50 [1]: 5.17 µM [falling, partial curve, poor fit]

COc1cc(C(=O)Nc2ccc(Br)cc2C(=O)c2cc(OC)c(OC)c(OC)c2)cc(OC)c1OC
AC50 [1]: 2.91 µM [rising, partial curve, poor fit]

COc1ccccc1CNc1ncnc2c1c(-c1ccccc1)cn2-c1ccc(Br)cc1
AC50 [1]: 1.26 µM [rising, full curve, poor fit]

From PubChem BioAssay AID493014 (National Center for Advancing Translational Sciences (NCATS), 2011)
